Source: PubChem BioAssay AID1508597 (Cure First, 2020)

Screen: 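Knock-downs altering ovarian cancer cell survival with or without PARP inhibitor rucaparib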 (primary screen)
Cells: human ovarian carcinoma lines grown from tumours: OCI-P5x (papillary serous) and OCI-C5x (clear cell)
Reagents: siRNA pool against human genes, 1.25 pmol siRNA per well
Duration: 72 h or 96 h, depending on the cell culture
Challenge: rucaparib 20 µM (about IC30) or vehicle, present until read-out
Read-out: 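ATP luminescence measured at 72 or 96 h according to the culture, then normalised and expressed as percent viability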
Direction: viability, normalised: higher = more viable cells remaining
Rule for the call: 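Active when normalised viability falls below 80 percent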
Meaning of the calls: active = viability under 80%; inactive = viability 80% or more
Here is an unselected part of about 2,100 deposited reagents. 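Calls flag viability under 80% in either arm, not effects specific to rucaparib; the reference for percent is not stated.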 A reagent listed more than once was tested more than once; the source does not tell the runs apart. The record does not give: the 100% reference.

viability, normalised (%)	outcome	Gene	rucaparib or vehicle	cell line	technical replicate
40.8	active	ORC1 (origin recognition complex subunit 1)	Rucaparib	OCI-C5x (clear cell)	1
40.3	active	ORC1 (origin recognition complex subunit 1)	Rucaparib	OCI-C5x (clear cell)	2
49.4	active	ORC1 (origin recognition complex subunit 1)	Rucaparib	OCI-C5x (clear cell)	3
46.1	active	ORC1 (origin recognition complex subunit 1)	Rucaparib	OCI-P5x (serous)	1
63.7	active	ORC1 (origin recognition complex subunit 1)	Rucaparib	OCI-P5x (serous)	2
52.4	active	ORC1 (origin recognition complex subunit 1)	Rucaparib	OCI-P5x (serous)	3
51.1	active	ORC1 (origin recognition complex subunit 1)	Vehicle	OCI-C5x (clear cell)	1
51.9	active	ORC1 (origin recognition complex subunit 1)	Vehicle	OCI-C5x (clear cell)	2
47.4	active	ORC1 (origin recognition complex subunit 1)	Vehicle	OCI-C5x (clear cell)	3
71.3	active	ORC1 (origin recognition complex subunit 1)	Vehicle	OCI-P5x (serous)	1
74.1	active	ORC1 (origin recognition complex subunit 1)	Vehicle	OCI-P5x (serous)	2
72.3	active	ORC1 (origin recognition complex subunit 1)	Vehicle	OCI-P5x (serous)	3
66.8	active	NTPCR (nucleoside-triphosphatase, cancer-related)	Rucaparib	OCI-C5x (clear cell)	1
84.1	inactive	NTPCR (nucleoside-triphosphatase, cancer-related)	Rucaparib	OCI-C5x (clear cell)	2
70.5	active	NTPCR (nucleoside-triphosphatase, cancer-related)	Rucaparib	OCI-C5x (clear cell)	3
80	active	NTPCR (nucleoside-triphosphatase, cancer-related)	Rucaparib	OCI-P5x (serous)	1
85.4	inactive	NTPCR (nucleoside-triphosphatase, cancer-related)	Rucaparib	OCI-P5x (serous)	2
68.9	active	NTPCR (nucleoside-triphosphatase, cancer-related)	Rucaparib	OCI-P5x (serous)	3
53.2	active	NTPCR (nucleoside-triphosphatase, cancer-related)	Vehicle	OCI-C5x (clear cell)	1
60.4	active	NTPCR (nucleoside-triphosphatase, cancer-related)	Vehicle	OCI-C5x (clear cell)	2
75.1	active	NTPCR (nucleoside-triphosphatase, cancer-related)	Vehicle	OCI-C5x (clear cell)	3
73.1	active	NTPCR (nucleoside-triphosphatase, cancer-related)	Vehicle	OCI-P5x (serous)	1
70.8	active	NTPCR (nucleoside-triphosphatase, cancer-related)	Vehicle	OCI-P5x (serous)	2
63.9	active	NTPCR (nucleoside-triphosphatase, cancer-related)	Vehicle	OCI-P5x (serous)	3
59.3	active	TJP3 (tight junction protein 3)	Rucaparib	OCI-C5x (clear cell)	1
52.6	active	TJP3 (tight junction protein 3)	Rucaparib	OCI-C5x (clear cell)	2
48.3	active	TJP3 (tight junction protein 3)	Rucaparib	OCI-C5x (clear cell)	3
86.1	inactive	TJP3 (tight junction protein 3)	Rucaparib	OCI-P5x (serous)	1
82.1	inactive	TJP3 (tight junction protein 3)	Rucaparib	OCI-P5x (serous)	2
91.8	inactive	TJP3 (tight junction protein 3)	Rucaparib	OCI-P5x (serous)	3
44.5	active	TJP3 (tight junction protein 3)	Vehicle	OCI-C5x (clear cell)	1
72.7	active	TJP3 (tight junction protein 3)	Vehicle	OCI-C5x (clear cell)	2
38.4	active	TJP3 (tight junction protein 3)	Vehicle	OCI-C5x (clear cell)	3
68.2	active	TJP3 (tight junction protein 3)	Vehicle	OCI-P5x (serous)	1
62.3	active	TJP3 (tight junction protein 3)	Vehicle	OCI-P5x (serous)	2
86	inactive	TJP3 (tight junction protein 3)	Vehicle	OCI-P5x (serous)	3
50.5	active	KMT2C (lysine methyltransferase 2C)	Rucaparib	OCI-C5x (clear cell)	1
49.2	active	KMT2C (lysine methyltransferase 2C)	Rucaparib	OCI-C5x (clear cell)	2
33.4	active	KMT2C (lysine methyltransferase 2C)	Rucaparib	OCI-C5x (clear cell)	3
75.5	active	KMT2C (lysine methyltransferase 2C)	Rucaparib	OCI-P5x (serous)	1
51.4	active	KMT2C (lysine methyltransferase 2C)	Rucaparib	OCI-P5x (serous)	2
72.5	active	KMT2C (lysine methyltransferase 2C)	Rucaparib	OCI-P5x (serous)	3
23.5	active	KMT2C (lysine methyltransferase 2C)	Vehicle	OCI-C5x (clear cell)	1
34.7	active	KMT2C (lysine methyltransferase 2C)	Vehicle	OCI-C5x (clear cell)	2
36.2	active	KMT2C (lysine methyltransferase 2C)	Vehicle	OCI-C5x (clear cell)	3
74.2	active	KMT2C (lysine methyltransferase 2C)	Vehicle	OCI-P5x (serous)	1
75.5	active	KMT2C (lysine methyltransferase 2C)	Vehicle	OCI-P5x (serous)	2
49.6	active	KMT2C (lysine methyltransferase 2C)	Vehicle	OCI-P5x (serous)	3
57.8	active	CSNK1E (casein kinase 1 epsilon)	Rucaparib	OCI-C5x (clear cell)	1
59.1	active	CSNK1E (casein kinase 1 epsilon)	Rucaparib	OCI-C5x (clear cell)	1
71	active	CSNK1E (casein kinase 1 epsilon)	Rucaparib	OCI-C5x (clear cell)	1
65	active	CSNK1E (casein kinase 1 epsilon)	Rucaparib	OCI-C5x (clear cell)	2
50.9	active	CSNK1E (casein kinase 1 epsilon)	Rucaparib	OCI-C5x (clear cell)	2
34.6	active	CSNK1E (casein kinase 1 epsilon)	Rucaparib	OCI-C5x (clear cell)	2
51.8	active	CSNK1E (casein kinase 1 epsilon)	Rucaparib	OCI-C5x (clear cell)	3
57.8	active	CSNK1E (casein kinase 1 epsilon)	Rucaparib	OCI-C5x (clear cell)	3
61.5	active	CSNK1E (casein kinase 1 epsilon)	Rucaparib	OCI-C5x (clear cell)	3
83.4	inactive	CSNK1E (casein kinase 1 epsilon)	Rucaparib	OCI-P5x (serous)	1
101	inactive	CSNK1E (casein kinase 1 epsilon)	Rucaparib	OCI-P5x (serous)	1
85.3	inactive	CSNK1E (casein kinase 1 epsilon)	Rucaparib	OCI-P5x (serous)	1
96	inactive	CSNK1E (casein kinase 1 epsilon)	Rucaparib	OCI-P5x (serous)	2
88	inactive	CSNK1E (casein kinase 1 epsilon)	Rucaparib	OCI-P5x (serous)	2
96.4	inactive	CSNK1E (casein kinase 1 epsilon)	Rucaparib	OCI-P5x (serous)	2
88.5	inactive	CSNK1E (casein kinase 1 epsilon)	Rucaparib	OCI-P5x (serous)	3
93.5	inactive	CSNK1E (casein kinase 1 epsilon)	Rucaparib	OCI-P5x (serous)	3
95.1	inactive	CSNK1E (casein kinase 1 epsilon)	Rucaparib	OCI-P5x (serous)	3
69.8	active	CSNK1E (casein kinase 1 epsilon)	Vehicle	OCI-C5x (clear cell)	1
65.7	active	CSNK1E (casein kinase 1 epsilon)	Vehicle	OCI-C5x (clear cell)	1
57.2	active	CSNK1E (casein kinase 1 epsilon)	Vehicle	OCI-C5x (clear cell)	1
59.3	active	CSNK1E (casein kinase 1 epsilon)	Vehicle	OCI-C5x (clear cell)	2
40.9	active	CSNK1E (casein kinase 1 epsilon)	Vehicle	OCI-C5x (clear cell)	2
59.7	active	CSNK1E (casein kinase 1 epsilon)	Vehicle	OCI-C5x (clear cell)	2
64.9	active	CSNK1E (casein kinase 1 epsilon)	Vehicle	OCI-C5x (clear cell)	3
59.7	active	CSNK1E (casein kinase 1 epsilon)	Vehicle	OCI-C5x (clear cell)	3
35.6	active	CSNK1E (casein kinase 1 epsilon)	Vehicle	OCI-C5x (clear cell)	3
82.2	inactive	CSNK1E (casein kinase 1 epsilon)	Vehicle	OCI-P5x (serous)	1
75.4	active	CSNK1E (casein kinase 1 epsilon)	Vehicle	OCI-P5x (serous)	1
77.7	active	CSNK1E (casein kinase 1 epsilon)	Vehicle	OCI-P5x (serous)	1
78.1	active	CSNK1E (casein kinase 1 epsilon)	Vehicle	OCI-P5x (serous)	2
93.7	inactive	CSNK1E (casein kinase 1 epsilon)	Vehicle	OCI-P5x (serous)	2
76.6	active	CSNK1E (casein kinase 1 epsilon)	Vehicle	OCI-P5x (serous)	2
87.9	inactive	CSNK1E (casein kinase 1 epsilon)	Vehicle	OCI-P5x (serous)	3
102	inactive	CSNK1E (casein kinase 1 epsilon)	Vehicle	OCI-P5x (serous)	3
78.5	active	CSNK1E (casein kinase 1 epsilon)	Vehicle	OCI-P5x (serous)	3
